We go through seven compounds from publication PMC8032764 (Scientific Reports, 2021).

For one data set, the system named is GABAA α5β3γ2. As to conditions: Table S4a, cited from earlier work.
A further data set concerns healthy volunteers. The data set can be described thus: Resting state EEG in healthy volunteers. It is filed as in vivo, human.
Setting [1] is: midazolam single dose, 1 h post dose.

Like-named read-outs stand apart in the source and are kept apart here.

For the compound `Cc1cc(-c2nncc3c(C(C)(C)C)c(OCc4ncnn4C)nn23)no1` [MRK-016, 3-tert-butyl-7-(5-methylisoxazol-3-yl)-2-(1-methyl-1H-1,2,4-triazol-5-ylmethoxy)-pyrazolo[1,5-d]-[1,2,4]triazine], the “α1/ α5 fold selectivity” value in the data set with GABAA α5β3γ2 (ref Atack et al. 2009) is listed as 1 fold.
Take `FC(F)c1ncn2c1Cn1ncnc1-c1cc(Br)ccc1-2` [RO4938581]: the “α1/ α5 fold selectivity” value in the data set on GABAA α5β3γ2 (ref Ballard et al., 2008) is on record as 38 fold.
With `Cc1onc(-c2ccc(F)cc2)c1COc1ccc(C(=O)N2CCS(=O)(=O)CC2)cn1` [basmisanil], in the data set with healthy volunteers (240 mg twice daily, 14 days), the “peak frequency of the beta- to low gamma effect” value came to 34.9 ± 3.13 Hz and the “peak frequency of the low-frequency effect” value is reported as 7.3 ± 0.4 Hz.
`Cc1ncc2n1-c1ccc(Cl)cc1C(c1ccccc1F)=NC2` [midazolam]: in the data set with healthy volunteers (setting [1]), the “peak frequency of the beta band effect” value was found to be 18.4 ± 6.06 Hz and the “peak frequency of the low-frequency effect (high theta to low alpha)” value was determined as 8.2 ± 4.12 Hz.
In the case of `COCc1ncn2c1CN(C)C(=O)c1cc(Cl)ccc1-2` [PWZ-029], the “α1/ α5 fold selectivity” value with GABAA α5β3γ2 (ref Savić et al., 2008) was 31 fold.
In the case of `CCOC(=O)c1ncn2c1[C@@H]1CCCN1C(=O)c1cc(OC)ccc1-2` [L-655,708], in the data set with GABAA α5β3γ2 (ref Atack et al., 2006), the “α1/ α5 fold selectivity” value was 70 fold.
Consider `Cc1cc(-c2nnc3c4ccccc4c(OCc4cn(C)nn4)nn23)no1` [α5IA], for which the “α1/ α5 fold selectivity” value with GABAA α5β3γ2 (ref Dawson et al., 2006) is 1 fold.
